# Experimental data reported in patent publication US11014885B2, “Method for preparing donepezil pamoate” (ZHEJIANG HUAHAI PHARMACEUTICAL CO., LTD., priority 2017, dated 2021).
# Conditions: powder of crystal form A obtained by the acetone/water precipitation method
compound,measurement,value
"COc1cc2c(cc1OC)C(=O)C(CC1CCN(Cc3ccccc3)CC1)C2 (centres unmarked) [compound of formula I, 1-benzyl-4-[(5,6-dimethoxyindan-2-one)methyl]piperidine pamoate]",angle of repose,< 30 °
same,fluidity,good fluidity
